Measurements taken from patent US10519109B2, “Glycopyrronium fatty acid salts and methods of making same” (QAAM PHARMACEUTICALS, LLC, priority 2015, dated 2019).
“And” between values parts separate entries of the source, which are not always exact repeats. Equal entries are not always repeated. Where two headings read alike, the source gives them in different places.

Key:
[1] = With excess free lauric acid (1.1 eq.); after mixing overnight at room temperature
[2] = not given; remark: listed apart in the source
[3] = not given; remark: listed apart in the source
[4] = after vacuum oven at 50° C. over the weekend, MTBE/n-heptane Bottom Layer
[5] = after vacuum oven at 50° C. over the weekend, MTBE/n-heptane Top Layer
[6] = Expt. 0: Initial Me-THF Solution
[7] = Me-THF Layer (final), repeated 5.0 g scale preparation
[8] = Me-THF layer after overnight ambient

In the case of `C[N+]1(C)CCC(OC(=O)C(O)(c2ccccc2)C2CCCC2)C1` (stereo not drawn) [glycopyrronium laurate], the “formation of the by-product Acid A” value [1] is reported as “no formation”, the “HPLC Results (AUC) Acid A” value (Oil Product, before drying) is reported as 4.84% and the “HPLC Results (AUC) Glycopyrronium” value (Oil Product, before drying) is reported as 93.82%. For the same compound, the “HPLC Results (AUC) Acid A” value [4] was 15.06%, the “HPLC Results (AUC) Glycopyrronium” value [4] was 83.94% and the “HPLC Results (AUC) Acid A” value [5] was 12.37%. The “HPLC Results (AUC) Glycopyrronium” value [5] was 86.80%, the “HPLC Results Acid A” value [2, 6] was 6.07% AUC % and the “HPLC Results Glycopyrronium” value [2, 6] was 90.67 AUC % and 90.67% AUC %. For the same compound, the “HPLC Results Acid A” value ([2]; Expt. 1A: Me-THF Solution at RT over weekend) was 9.26% AUC %, the “HPLC Results Acid A” value ([2]; Expt. 1B: Me-THF Solution at 50° C. over weekend, Bottom layer) was 46.08% AUC % and the “HPLC Results Acid A” value ([2]; Expt. 1B: Me-THF Solution at 50° C. over weekend, Top layer) was 40.08% AUC %. The “HPLC Results Acid A” value ([2]; Expt. 2A: Me-THF Solution in the presence of Lauric Acid at RT over weekend) was 6.61% AUC %, the “HPLC Results Acid A” value ([2]; Expt. 2B: Me-THF Solution in the presence of Lauric Acid at 50° C. over weekend, Bottom layer) was 30.01% AUC % and the “HPLC Results Acid A” value ([2]; Expt. 2B: Me-THF Solution in the presence of Lauric Acid at 50° C. over weekend, Top layer) was 28.36% AUC %. The “HPLC Results (AUC) Acid A” value [2, 7] was 4.12%, the “HPLC Results (AUC) Glycopyrronium” value [2, 7] was 91.06% and the “HPLC Results (AUC) Acid A” value [2, 8] was 6.07%. For the same compound, the “HPLC Results (AUC) Glycopyrronium” value [2, 8] was 90.67% and the product content remaining ([2]; Me-THF solution at 50° C. over weekend with excess free lauric acid present (both layers)) was 65-70 area %.

With `C[N+]1(C)CCC(OC(=O)C(O)(c2ccccc2)C2CCCC2)C1` (stereo not drawn) [glycopyrronium stearate] the ““Acid A” observation by HPLC” value ([3]; first month of use) was “not observed”, the “GP % AUC Purity” value ([3]; new, freshly isolated sample) was 95.89% AUC and the ““Acid A” % w/w” value ([3]; new, freshly isolated sample) was 0.13% w/w. For the same compound, the ““Acid A” AUC %” value ([3]; new, freshly isolated sample) was 0.50% AUC %, the “GP % AUC Purity” value ([3]; retest after ~4 months at ambient conditions) was 87.33% AUC and the ““Acid A” % w/w” value ([3]; retest after ~4 months at ambient conditions, listed as EE-008-001-3B) was 2.44 % w/w. For the same compound, the ““Acid A” AUC %” value ([3]; retest after ~4 months at ambient conditions, relative to glycopyrronium content, listed as EE-008-001-3B) was 9.29 AUC % and 9.29% AUC %.
